# Assay results: US4455303A, “Renin inhibitors” (priority 1983, dated 1984)
# At least one read-out could not be matched to a standard name with certainty. Where a SMILES comes first, the peptide text is derived from it. [ ]: non-standard residue; d: D form. Phe(4-I) = N[C@@H](Cc1ccc(I)cc1)C(=O)O
# Target: T1, human renin (Homo sapiens, UniProt P00797)
# T1 sequence (P00797 67-406): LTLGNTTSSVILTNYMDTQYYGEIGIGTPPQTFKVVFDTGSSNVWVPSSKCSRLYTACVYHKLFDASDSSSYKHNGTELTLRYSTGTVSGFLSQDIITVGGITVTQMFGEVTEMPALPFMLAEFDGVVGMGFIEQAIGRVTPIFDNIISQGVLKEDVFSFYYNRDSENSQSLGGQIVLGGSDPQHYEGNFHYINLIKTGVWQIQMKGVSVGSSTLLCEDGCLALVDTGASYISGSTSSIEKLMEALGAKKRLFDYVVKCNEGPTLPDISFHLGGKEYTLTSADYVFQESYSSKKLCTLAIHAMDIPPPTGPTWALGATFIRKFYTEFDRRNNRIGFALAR
# Assay: IC50 on human renin, angiotensin I generation from tetradecapeptide renin substrate (assay of Burton et al)
# Assay type: biochemical
# Conditions: Table I, read-out: IC50 (concentration at which inhibition is 50%)
# Protocol: The assay for testing the inhibitory activities of the pentapeptides on renin is described in Burton, J. et al, Biochem. 14: 3892-3898 (1975), which is herein incorporated by reference.
# The 11 pentapeptides shown in Table I were synthesized by standard solid phase peptide synthesis as shown in the description following the table and the IC50 (concentration at which inhibition is 50%) value on human renin in the assay of Burton et al, supra, was determined for each sample.
# Angiotensin I standards and tetradecapeptide renin substrate (TDP) were obtained from Peninsula Laboratories Inc. (San Mateo, CA). Renin was a gift of Dr. E. Slater (1980). Angiotensin I concentration was determined by radioimmunoassay using a commercially available kit (Clinical Assays, Cambridge, MA).
# Standard renin solution (V3) is diluted 4-fold with M Tris-lysozyme buffer (pH 7.40). Concentration of […] of the renin inhibitor being tested are also prepared in the Tris-lysozyme buffer. For the uninhibited reaction Tris-lysozyme buffer alone is used in place of the inhibitor solution.
# Reaction mixtures containing TDP solution ([…], 25 µM), renin solution (50 liters, 20-fold diluted), and the inhibitor (50 liters, 50-1000 M) were incubated for 1 hr at 37°, diluted 1000-fold and assayed for angiotensin I.
# Inhibition is determined by the following equation: […]
smiles,measurement,value
"CC(C)[C@H](NC(=O)[C@H](Cc1ccc(I)cc1)NC(=O)[C@@H](N)Cc1ccccc1)C(=O)N[C@@H](Cc1ccc(O)cc1)C(=O)N[C@@H](CCCCN)C(N)=O [RI-103, Phenylalanyl-4-iodophenylalanylvalyltyrosyllysine-amide] (H-F[Phe(4-I)]VYK-NH2)",IC50,200 µM
